Measured values published in ChEMBL document CHEMBL4513141, “CO-ADD screening of NIH (USA) - Clinical Collection” (2021).
This is one part of the list. Entries with a potency or affinity are not part of this list.

Test system: Pseudomonas aeruginosa
Settings: Concentration 20 uM; ASSAY_TEST Inhibition of Bacterial Growth; detection method Absorption (OD600); MEDIA CAMHB; plate type 384well; NBS; CORNING #3640; time 18 hr

Q: For `CC(=O)O.CNC(=N)NCCC[C@H](N)C(=O)O` [TILARGININE ACETATE], which Inhibition is on record?
A: -0.05%

Q: For `Cc1cn([C@H]2C=C[C@@H](CO)O2)c(=O)[nH]c1=O` [STAVUDINE], which Inhibition is on record?
A: 16.08%

Q: How did the Inhibition turn out when `CC(=O)NS(=O)(=O)c1ccc(N)cc1` [SULFACETAMIDE] was run?
A: 6.24%

Q: For `NS(=O)(=O)c1cc2c(cc1C(F)(F)F)NCNS2(=O)=O` [HYDROFLUMETHIAZIDE], which Inhibition is on record?
A: 10.41%

Q: For `CN1CCC(=C2c3ccccc3C=Cc3ccccc32)CC1.Cl` [CYPROHEPTADINE HYDROCHLORIDE], which Inhibition is on record?
A: 15.52%

Q: Which Inhibition does the source give for `CS(=O)(=O)OCCCCOS(C)(=O)=O` [BUSULFAN] here?
A: 15.86%

Q: For `CN1C(=O)CC[C@H]1c1cccnc1` [COTININE], which Inhibition is on record?
A: 2.81%

Q: `CCCOc1ccc(C(=O)OCCN(CC)CC)cc1N.Cl` [PROPARACAINE HYDROCHLORIDE] was tested. Which Inhibition did it give?
A: 1.72%

Q: For `CC(C)[N+](C)(CCOC(=O)C1c2ccccc2Oc2ccccc21)C(C)C.[Br-]` [PROPANTHELINE BROMIDE], which Inhibition is on record?
A: 14.79%

Q: With `CCOC(=O)[C@H](CCc1ccccc1)N[C@@H](C)C(=O)N1Cc2ccccc2C[C@H]1C(=O)O.Cl` [QUINAPRIL HYDROCHLORIDE] as the compound, how does the Inhibition read?
A: 14.62%

Q: Which Inhibition does the source give for `C[C@@H](O)[C@H]1C(=O)N2C(C(=O)O)=C(S[C@@H]3CN[C@H](C(=O)N(C)C)C3)[C@H](C)[C@H]12` [MEROPENEM] here?
A: 8.16%

Q: How did the Inhibition turn out when `CS(=O)(=O)O.Cc1c(O)cccc1C(=O)N[C@@H](CSc1ccccc1)[C@H](O)CN1C[C@H]2CCCC[C@H]2C[C@H]1C(=O)NC(C)(C)C` [NELFINAVIR MESYLATE] was run?
A: 9.77%

Q: With `C[C@]12CC[C@@H]3c4ccc(OS(=O)(=O)[O-])cc4CC[C@H]3[C@@H]1CCC2=O.[Na+]` [ESTRONE SODIUM SULFATE] as the compound, how does the Inhibition read?
A: 7.52%

Q: How did the Inhibition turn out when `Nc1nc(Cl)nc2c1ncn2[C@@H]1O[C@H](CO)[C@@H](O)[C@H]1O` was run?
A: 14.41%

Q: How did the Inhibition turn out when `O=c1c(O[C@@H]2O[C@H](CO)[C@H](O)[C@H](O)[C@H]2O)c(-c2ccc(O)c(O)c2)oc2cc(O)cc(O)c12` [HYPEROSIDE] was run?
A: 12.67%

Q: How did the Inhibition turn out when `O=C1N=C([O-])NC1(c1ccccc1)c1ccccc1.[Na+]` [PHENYTOIN SODIUM] was run?
A: 8.36%

Q: With `OCCN(CCO)c1nc(N2CCCCC2)c2nc(N(CCO)CCO)nc(N3CCCCC3)c2n1` [DIPYRIDAMOLE] as the compound, how does the Inhibition read?
A: 9.85%

Q: Which Inhibition does the source give for `COCCCC/C(=N\OCCN)c1ccc(C(F)(F)F)cc1.O=C(O)/C=C\C(=O)O` [FLUVOXAMINE MALEATE] here?
A: 8.03%

Q: For `O=C1c2c(O)cc(O)cc2O[C@H](c2ccc(O)c(O)c2)[C@@H]1O`, which Inhibition is on record?
A: 14.99%

Q: How did the Inhibition turn out when `CN(C)CCC(c1ccc(Cl)cc1)c1ccccn1.O=C(O)/C=C\C(=O)O` (stereo not given) [CHLORPHENIRAMINE MALEATE] was run?
A: 18.65%

Q: `O=C(O)c1cc(/N=N/c2ccc(S(=O)(=O)Nc3ccccn3)cc2)ccc1O` [SULFASALAZINE] was tested. Which Inhibition did it give?
A: 7.1%

Q: `COc1ccc(OC)c(C(O)CNC(=O)CN)c1.Cl` (stereo not given) [MIDODRINE HYDROCHLORIDE] was tested. Which Inhibition did it give?
A: 15.97%

Q: `CC(N)C12CC3CC(CC(C3)C1)C2.Cl` (stereo not given) [RIMANTADINE HYDROCHLORIDE] was tested. Which Inhibition did it give?
A: 8.62%

Q: How did the Inhibition turn out when `CC1(C)S[C@@H]2[C@H](/N=C/N3CCCCCC3)C(=O)N2[C@H]1C(=O)O` [AMDINOCILLIN] was run?
A: 20.19%

Q: For `CCN(CC)CCOC(=O)c1ccc(N)cc1.Cl` [PROCAINE HYDROCHLORIDE], which Inhibition is on record?
A: 12.48%

Q: Which Inhibition does the source give for `Cc1cc2c(s1)Nc1ccccc1N=C2N1CCN(C)CC1` [OLANZAPINE] here?
A: 33%

Q: How did the Inhibition turn out when `Cc1nc2ccccn2c(=O)c1CCN1CCC(C(=O)c2ccc(F)cc2)CC1` [PIRENPERONE] was run?
A: 9.74%

Q: `CSc1nc2cc(Cl)c(Oc3cccc(Cl)c3Cl)cc2[nH]1` [TRICLABENDAZOLE] was tested. Which Inhibition did it give?
A: 14.05%

Q: With `O=C(CCNNC(=O)c1ccncc1)NCc1ccccc1` [NIALAMIDE] as the compound, how does the Inhibition read?
A: 16.52%

Q: `NC(=O)c1cnccn1` [PYRAZINAMIDE] was tested. Which Inhibition did it give?
A: 13.64%

Q: With `Cc1ncc([N+](=O)[O-])n1CC(C)O` (stereo not given) [SECNIDAZOLE] as the compound, how does the Inhibition read?
A: 10.92%

Q: For `NC(Cc1cc(I)c(Oc2ccc(O)c(I)c2)c(I)c1)C(=O)O` (stereo not given) [RATHYRONINE], which Inhibition is on record?
A: 15.38%

Q: For `CC(=O)CCCCn1c(=O)c2c(ncn2C)n(C)c1=O` [PENTOXIFYLLINE], which Inhibition is on record?
A: 13.94%

Q: How did the Inhibition turn out when `O=C(NCCN1CCOCC1)c1ccc(Cl)cc1` [MOCLOBEMIDE] was run?
A: 7.86%

Q: Which Inhibition does the source give for `CC(C(O)c1ccc(O)cc1)N1CCC(Cc2ccccc2)CC1.O.O=C(O)C(O)C(O)C(=O)O` (stereo not given) here?
A: 38.67%

Q: Which Inhibition does the source give for `C[C@]12CCC(=O)C=C1CC[C@@H]1[C@@H]2C(=O)C[C@@]2(C)[C@H]1CC[C@]2(O)C(=O)CO` [CORTISONE] here?
A: 19.36%

Q: For `C[C@@H]1C[C@H]2[C@@H]3C[C@H](F)C4=CC(=O)C(Cl)=C[C@]4(C)[C@@]3(F)[C@@H](O)C[C@]2(C)[C@@]1(O)C(=O)CO` [HALOMETASONE], which Inhibition is on record?
A: 3.47%

Q: How did the Inhibition turn out when `CC(=O)CCCCn1cnc2c1c(=O)n(C)c(=O)n2C` [LOMIFYLLINE] was run?
A: 10.51%

Q: With `CC(=O)OCC(=O)NCCCOc1cccc(CN2CCCCC2)c1.Cl` [ROXATIDINE ACETATE HYDROCHLORIDE] as the compound, how does the Inhibition read?
A: 15.86%

Q: For `CC(=O)O[C@]1(C(C)=O)CC[C@H]2[C@@H]3C[C@H](C)C4=CC(=O)CC[C@]4(C)[C@H]3CC[C@@]21C` [MEDROXYPROGESTERONE ACETATE], which Inhibition is on record?
A: 8.66%

Q: With `CCC(=C(c1ccccc1)c1ccc(OCCN(C)C)cc1)c1ccccc1` as the compound, how does the Inhibition read?
A: 6.08%

Q: `O=c1c(O[C@@H]2O[C@H](CO)[C@@H](O)[C@H](O)[C@H]2O)c(-c2ccc(O)c(O)c2)oc2cc(O)cc(O)c12` [ISOQUERCETIN] was tested. Which Inhibition did it give?
A: 60.53%

Q: How did the Inhibition turn out when `CCCCNc1cc(C(=O)O)cc(S(N)(=O)=O)c1Oc1ccccc1` [BUMETANIDE] was run?
A: 10.04%

Q: With `Cl.NC12CC3CC(CC(C3)C1)C2` [AMANTADINE HYDROCHLORIDE] as the compound, how does the Inhibition read?
A: 10.58%

Q: Which Inhibition does the source give for `CN(C)CCOC(C)(c1ccccc1)c1ccccn1.O=C(O)CCC(=O)O` (stereo not given) [DOXYLAMINE SUCCINATE] here?
A: 8.6%
